A weaker result is weaker than the reference pair of the same experiment.
Columns and labels:
Assay in all cases: EMSA
Conditions in all cases: EMSA: 10 mM HEPES/NaOH pH 7.4, 150 mM NaCl, ~53 pmol DNA in 10 ul, RT 15 min; DNA:protein molar ratios 1:0.3 to 1:9; 6% PAGE, 0.5% TBE, ethidium bromide; recombinant protein; residues 1-190; protein details: Strep-tag (C-terminal)
[1] = target: VosA1-190 R41A (Aspergillus nidulans) (UniProt Q5BBX1)
[2] = target: VosA1-190 K39A (Aspergillus nidulans) (UniProt Q5BBX1)
[3] = target: VosA1-190 K42A (Aspergillus nidulans) (UniProt Q5BBX1)
[4] = target: VosA1-190 K37A (Aspergillus nidulans) (UniProt Q5BBX1)

Measured: binding result

ATTCGGCGACTAGGATCTTACTGGCCGCGGCCGAG (double strand) [brlA 35 bp probe (OHS301/302)]
binds more weakly: all assays above

From PMC3876986, “The Velvet Family of Fungal Regulators Contains a DNA-Binding Domain Structurally Similar to NF-κB”
